The whole screen tested about 52,000 sequences, of which about 210 (0.4%) were called active.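 Rule for the calls: active = gene whose silencing raises cell survival under the drug, median off-target-corrected z-score across its silencing RNAs 2 or more; inactive = the rest.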 The list shows a part of the results.

A short description of the experiment: Resistance to Poly (ADP-Ribose) Polymerase inhibitor: Gene Identification via Genome-wide siRNA Screen. To be noted: mouse BRCA2 R2336H ES cells, olaparib, CellTiter-Glo viability; stronger effect = higher value. An outline of the steps: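 Mouse BRCA2 R2336H ES cells were reverse-transfected with siRNA (20 nM final), treated at 48 h with 500 nM olaparib, and read by CellTiter-Glo after 72 h. Scores: MAD-based z per siRNA, median per gene, seed off-target correction.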
On to CGAAUACGUGUCAUGAUUUTT against Gbas, for which the z-score is inactive: 0.417.
In the case of GGAAUAGGACCUAUGUCUGTT against Nr2e1 it was inactive: -0.326; in that of GGUCUUUGAGUCUACACAGTT against Usmg4, inactive: -0.311.
On to CGUUUCAAUCAGAGGACUUTT against Gig1, for which the z-score is inactive: -0.363.
Take GGCUCUUGAUACGAAUGUATT against Aadac: the z-score was inactive: -2.16.
In the case of GGCUGGAGUCAAAGGAAAGTT against Nudt4, the z-score is inactive: -1.5.
In the case of “GGAUAAUGGUUUAAAACUCTT against B630005N14Rik” it was inactive: 0.48.
For the sequence GGAUGGUUACAAAAGAGAUTT against Dspp, the z-score was inactive: 0.806.
In the case of GCCACGUUCCUCAUCGAUUTT against Plscr3 it was inactive: 0.887.
In the case of GCCAACUGGAUAUUAACAATT against Dnm1l it was inactive: -1.36; in that of GGAUCUAUAUCCAGUAGAGTT against Smcr7, inactive: 2.29.
In the case of CCAACGUGAGCAUAUUAUATT against Adcy2, the z-score was inactive: 0.104.
For GGACAUUAGAGAUUUCCGATT against Isyna1, the z-score was inactive: 0.203.
Turning to “GGCUGUGAUAUUGUUAUUCTT against E130119P06Rik”, the z-score was inactive: 0.823.
In the case of GGAGUAUGCUCAGGUGAUCTT against Eif1a it was inactive: -0.23; in that of “CGAUCUGCUAUCAUAAGCATT against A630005I04Rik”, inactive: -0.553; in that of GGGACUUCCAAGGAAAGUGTT against Dbi, inactive: -1.33.
In the case of CCAGUGUGGAGGAAAGUACTT against Gm123 it was inactive: -0.523; in that of GGCUUAAACACCUCCAAUGTT against Catnd2, inactive: -1.63; in that of CCAACUACACACUACGCAUTT against Grik5, inactive: 0.98.
CCGACUACGUCAAUUGGUUTT against Fbxo21: the z-score is inactive: 0.127.
In the case of GGAUCCAUGCUGUCAGUGGTT against Sftpa1 it was inactive: -0.283.
Take GGGUAACGUGCUGCUUCUATT against Bri3: the z-score is inactive: -0.647.
In the case of “CCCAUCUUCAGAUUGUGCATT against B230362M20Rik” it was inactive: 0.00113; in that of GGCUUUCAAGGGUUGCCAATT against Ms4a3, inactive: 1.36; in that of GGUCUAAUAUAAACGGGCCTT against Ppp4r2, inactive: -0.463.
As for GGCCAUGGAAAAGUUCCGUTT against Kcna3, the z-score is inactive: 0.353.
In the case of GGCUGUAGUGGUGCUAAUUTT against Slc10a2 it was inactive: -1.01.
In the case of GGCAUUGGUGUUUCAUUAATT against Gpm6a it was inactive: 0.397.
